# The campaign covered roughly 31,000 sequences. About 1,400 (4.5%) were called active.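 The calls were made as follows: active = median seed-adjusted z-score above 1 or below -1; inactive = the rest.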 Some of the results follow.
# Test: Novel Modifiers of Survival Motor Neuron (SMN) Protein: Gene Identification via Genome-wide siRNA Screen;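 also: luminescence tracks full-length SMN protein made from the SMN2 reporter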
# Settings: HEK293T SMN2-luciferase reporter, siRNA knockdown, 72 h; actives lie on both sides
# In short: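 Steps: spot 1 pmol siRNA, add Lipofectamine RNAiMax in serum-free DMEM, seed HEK293T SMN2–luciferase reporter cells; incubate 72 h at 37 °C; add ONE-Glo; normalize luminescence to control siRNA, log10, MAD. Candidates: |MAD| > 1.0.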
row,Sequence,median seed-adjusted z-score
1,CAAGAGUGAUCCAACUAAATT against PCDHA12,inactive: 0.0761
2,GUAUGGAUCCCUUAAUAUATT against P2RY13,inactive: -0.0427
3,CCAGUGUCAUCAGCGAUGATT against NUAK1,inactive: -0.197
4,GAAGCUGAAGGAUUAUUUATT against VPS4A,inactive: 0
5,GGUUUUUGCCCAAGUCUCATT against ZNF324,inactive: 0
6,AGACUUCACAACAAGAGAATT against TIMM9,inactive: -0.371
7,CCAUCCGCAACAUCACAAATT against IGF2BP1,inactive: -0.993
8,CACGGACCUUGAGGAAUUATT against TBC1D22A,inactive: -0.00192
9,CAGAUGUUAUGGAUAUAAUTT against L2HGDH,inactive: -0.346
10,GUUAAUCACAUACACCAAATT against GPR22,inactive: 0.705
11,GUGACUGUUUAAUCGGUUATT against POLR3B,inactive: -0.151
12,GGGAACCAUUGAUCGAAUATT against SNX30,inactive: -0.157
13,CGGACAAGAUUGACAGGUATT against TSPAN4,inactive: 0.417
14,GAAUCACGAUAGAUGAAGATT against DLD,inactive: 0.377
15,CCUUAGCGAUUUGAUCCCATT against GALNT5,inactive: -0.279
16,GCAGGGACUUGAUAGACGATT against ANXA4,inactive: -0.0932
17,GGCUUACUAAAAAUGAACATT against UST,inactive: 0.265
18,CCCGGGAACCCAUAACAAATT against CYP2C19,inactive: -0.0674
19,UGAGGACACUUCUUGGAGATT against FOXE3,inactive: -0.451
20,CAAGGUCACUUGGUACAUATT against CD48,inactive: -0.0981
21,GGAGUGCUAAUCUAUGAAATT against PRKACB,inactive: -0.258
22,CUAACAACGUACAAAUGGATT against TRIM42,inactive: -0.153
23,CCAGCUCCUUAAGUACUAATT against F2RL2,inactive: -0.216
24,GGGCCUCAGUGGUUUCUGUTT against RELT,inactive: 0.349
25,GGACAUUCAAUUCGACAAATT against DDX4,inactive: -0.136
26,GGGAUAUUUUCUACGCUUUTT against DNAH5,inactive: -0.45
27,CGAGUGAUGAUAAUCCGGATT against RUVBL1,inactive: -0.834

# Four entries drawn at random from those above, as already listed:
row,Sequence,median seed-adjusted z-score
15,CCUUAGCGAUUUGAUCCCATT against GALNT5,inactive: -0.279
5,GGUUUUUGCCCAAGUCUCATT against ZNF324,inactive: 0
10,GUUAAUCACAUACACCAAATT against GPR22,inactive: 0.705
16,GCAGGGACUUGAUAGACGATT against ANXA4,inactive: -0.0932

# (cont.)

row,Sequence,median seed-adjusted z-score
1,GGAUAUCAACUUAUUAGAUTT against XPO1,active: 1.12
2,ACCUCACUGUUCUACUACATT against SLC26A11,inactive: -0.507
3,GCACAUCCACCAACAGGUATT against COCH,inactive: -0.524
4,CAAGCAUAGUGCUUAUUUUTT against FOXQ1,inactive: 0.369
5,GAGAGAUUUGUAUAUCGUUTT against DOCK3,inactive: 0.51
6,GGGCAGUCAUUGGAUCUGATT against DPEP3,inactive: 0.95
7,GACAAGACCUUAAAUGAUUTT against ZBTB7A,inactive: -0.344
8,GACCGGGUAUCUUCUAAUATT against SLC24A6,inactive: -0.792
9,AGGUGUACAGUGACGCACATT against FGFR3,inactive: -0.133
10,GGAUUGUCGGCAGUAGUAATT against MARCO,inactive: 0.137
11,CAGAAAGUCAGAUCGAUAATT against KRR1,inactive: -0.0353
12,GCAAGUGUUUUGAUCAAAATT against ZNF662,inactive: 0.352
13,GCUACUCUGUCAUCUUUGATT against RCBTB2,inactive: 0.235
14,GGGAAGUCUUUUAAUCGUATT against ZNF780B,inactive: -0.332
15,ACACCAAGUCUUUUGAGGATT against HRAS,inactive: -0.85
16,UAGUCAAGGUGGAUUUUGATT against CAV3,inactive: 0
17,GGAAAUCCUUCAUAUACAATT against ZNF549,inactive: 0.0114
18,CUACGAGAAUAAUUCGGAATT against THOC1,active: -3.04
19,CCAACAAUUUAGUAGUUAUTT against TBP,active: -1.25
20,AAUCAAGGCUAUCAAGUAUTT against NPSR1,inactive: -0.314
21,GAAAGAUUGAAGAAGUUCATT against PRMT3,inactive: 0.00875
22,AGCUACCGAUGGAAGAGGATT against CLK3,active: -1.11
23,ACUUUGCCUUCAAGCUCUATT against SERPINA13,inactive: -0.403
24,CAGAACUAUUCAACAAUUUTT against CD200R2,inactive: -0.772
25,CUACGCUACUGAUCGGAAATT against ATPAF1,inactive: 0.393
26,AGAGAAUUGGUGAGUUUAATT against TCF15,inactive: -0.361

# Reference: PubChem BioAssay AID1347426 (Functional Genomics Laboratory (NCATS/FGL), 2020)
